# Assay results taken from patent US20150335615A1, “CHOLESTEROL-LOWERING COMPOUNDS IN COMBINATION WITH LIPID METABOLISM-ALTERING COMPOUNDS OF NON-ABSORBABLE SUGARS, COMPOUNDS THAT CONVERT NH3 TO NH4+, OR HYDROGEN-GENERATING COMPOUNDS FOR THE TREATMENT OF HIGH CHOLESTEROL AND INFLAMMATION” (priority 2013, published 2015).
# At least one structure is not confirmed: it was looked up by name or label, or the drawing left a doubt.
# Assays:
# LDLR knockout mice = assay: Serum lipoproteins (HDL, LDL, Ox-LDL) in LDLR knockout mice on high fat diet (Example 3); type: in vivo; conditions: LDLR-KO mice, high fat diet 12 weeks, atorvastatin 20 mg/kg day in diet, lactulose 400 mg/day oral gavage
# Experimental: Low density lipoprotein receptor (LDLR) knockout mice and their wild type (C57BL6/J), were purchased from Jackson Laboratories (Bar Harbor, Me., USA). Male LDLR knockout mice (9-w old male) received control standard diet (Picolab, MO, USA; diet #5053) or high fat diet (Tekland Custom Diet, WI, USA; diet #TD88137). The LDLR mice received high fat diet were further randomly divided into four groups; G1) 20 mg/kg day atorvastatin group, G2) 400 mg/day lactulose group, G3) combination group, and G4) negative control group (no atorvastatin or lactulose). Atorvastatin was supplemented in the diet and lactulose was administered by oral gavage, twice a day. Wild type mice were maintained on the standard diet. All mice were fed with above noted respective diet for 12 weeks and sacrificed for post mortal analyses. Blood was collected by heart puncture at left ventricular on the sacrificed mice, followed flushing the blood circulation with PBS, and the aorta and liver lobes were removed for laboratory evaluations. Blood was drawn from heart in the absence of anti-coagulant agents, and the serum was prepared. High-density lipoprotein cholesterol and low-density lipoprotein (LDL) cholesterol were determined by a commercial colorimetric assay (Sigma-Aldrich, MO, USA). Oxidative-LDL was measured by ELISA (Uscn Life Science, TX, USA).
# LDLR-KO mice [1] = assay: Weight increase of LDLR-KO mice on western diet (Example 4); type: in vivo; conditions: western diet 12 weeks, atorvastatin 0.16% w/w in HFD, lactulose 3 g/kg/day oral, FIG. 9
# Excerpt: Animals: Homozygous LDL receptor knockout (LDLr−/−; C57BL/6) mice were purchased from the Jackson Laboratory (Bar Harbor, Me.). This genetically manipulated mouse strain is most commonly used for the pre-clinical study of high-fat diet induced hyperlipidemia and atherosclerosis. Nine weeks of age mice were separated into five groups (Groups #1-#5) and fed with normal diet (Group #1; Picolab, 5053) or high fat diet (Group #2-#5; HFD; Harlan Teklad, TD 88137) for 12 weeks. Atorvastatin (Lipitor) was added to the HFD (0.16% w/w) to Group #4 and Group #5. Lactulose (3 g/kg/day, in water solution) was orally administered every 12 hours to Group #3 and Group #5. The LDLR-KO mice were fed for three months with a normal or western diet, with or without lactulose, and with or without atorvastatin.
# LDLR-KO mice [2] = conditions: 'It is reported'; cited from earlier work
structure (smiles),measurement,setting,value
"CC(C)c1c(C(=O)Nc2ccccc2)c(-c2ccccc2)c(-c2ccc(F)cc2)n1CC[C@@H](O)C[C@@H](O)CC(=O)O [atorvastatin, (3R,5R)-7-[2-(4-fluorophenyl)-3-phenyl-4-(phenylcarbamoyl)-5-propan-2-ylpyrrol-1-yl]-3,5-dihydroxyheptanoate]",amount of HDL (good cholesterol),LDLR knockout mice; FIG. 8A,didn't change
same,LDL (bad cholesterol) levels,LDLR knockout mice; FIG. 8B,suppressed
same,weight increase,LDLR-KO mice [1],significantly increased
same,hyperlipidemia in mice (reported),LDLR-KO mice [2],do not work
